Results are given in words; binding and its absence hold for the method and conditions named. Binding seen in cells or lysates may run through a third protein. A result given as binding can be weak or reduced; the word gives no strength.

Chains of the proteins cited; added tags and fusions are not shown. Lines headed by an entry give the natural chain unless they say otherwise; changes in a name come on top. Residues count along the entry.
UniProt O14944: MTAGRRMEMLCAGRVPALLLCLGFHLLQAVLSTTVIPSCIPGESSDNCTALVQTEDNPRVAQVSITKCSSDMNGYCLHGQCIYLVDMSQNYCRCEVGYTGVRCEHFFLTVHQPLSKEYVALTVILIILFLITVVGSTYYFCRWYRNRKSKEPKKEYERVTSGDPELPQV
UniProt P48357, residues 22-1165: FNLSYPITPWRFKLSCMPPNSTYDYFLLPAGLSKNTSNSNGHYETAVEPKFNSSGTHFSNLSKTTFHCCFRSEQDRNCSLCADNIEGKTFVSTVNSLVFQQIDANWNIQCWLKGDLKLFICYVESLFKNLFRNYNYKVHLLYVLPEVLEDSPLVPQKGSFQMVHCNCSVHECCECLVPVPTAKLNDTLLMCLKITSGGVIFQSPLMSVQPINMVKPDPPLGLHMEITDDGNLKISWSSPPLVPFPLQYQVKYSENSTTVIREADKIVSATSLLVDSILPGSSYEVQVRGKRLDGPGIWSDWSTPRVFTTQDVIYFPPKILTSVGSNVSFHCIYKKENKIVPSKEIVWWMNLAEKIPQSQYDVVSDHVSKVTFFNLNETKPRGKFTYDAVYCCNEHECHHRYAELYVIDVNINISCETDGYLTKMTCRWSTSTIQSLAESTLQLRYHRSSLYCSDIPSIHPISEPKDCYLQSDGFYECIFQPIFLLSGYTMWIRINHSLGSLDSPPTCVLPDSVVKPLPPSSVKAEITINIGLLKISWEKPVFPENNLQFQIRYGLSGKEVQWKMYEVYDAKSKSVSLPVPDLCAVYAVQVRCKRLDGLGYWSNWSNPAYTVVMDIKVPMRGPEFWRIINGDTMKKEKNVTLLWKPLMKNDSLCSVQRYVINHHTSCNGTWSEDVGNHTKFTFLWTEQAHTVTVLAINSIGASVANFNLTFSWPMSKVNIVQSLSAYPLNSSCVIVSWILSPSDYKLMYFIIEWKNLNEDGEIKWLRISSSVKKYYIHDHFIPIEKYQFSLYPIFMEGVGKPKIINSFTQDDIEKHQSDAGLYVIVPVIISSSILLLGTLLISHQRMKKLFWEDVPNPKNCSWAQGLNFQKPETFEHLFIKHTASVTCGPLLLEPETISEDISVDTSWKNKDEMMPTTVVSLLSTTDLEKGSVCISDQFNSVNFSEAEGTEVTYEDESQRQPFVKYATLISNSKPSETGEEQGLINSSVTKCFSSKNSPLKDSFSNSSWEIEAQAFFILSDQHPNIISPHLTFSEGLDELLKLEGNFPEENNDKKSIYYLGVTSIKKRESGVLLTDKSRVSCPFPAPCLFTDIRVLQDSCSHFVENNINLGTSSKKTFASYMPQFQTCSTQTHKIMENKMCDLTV

The results in this text go back to PMC8834548, “Epiregulin as an Alternative Ligand for Leptin Receptor Alleviates Glucose Intolerance without Change in Obesity” (Cells, 2022).

This assay has as its target epiregulin (EREG), endogenous in human omental adipose tissue (human (endogenous in omental adipose tissue)) (UniProt O14944). As to the kind of experiment: co-IP; human anti-EREG antibody, abdominal omental adipose tissue of an obese insulin-resistant patient; blot for LEPR (Figure S4).

“leptin receptor (LEPR), endogenous in human omental adipose tissue (from UniProt P48357 22-1165)”: the binding entry is given as “binds weakly”.
